Some of the results follow.
What follows are sequences tested against T1, OsSMF1 (Oryza sativa, UniProt Q6ZLB0 1-436) (assay: protein-binding microarray (RPBM); PBS, 2% BSA, 51.3 ng/ul salmon testes DNA, 50 uM zinc acetate, 200 nM TF, 25 C, 1 h; high values mean tight binding). Conditions: protein: recombinant; tags: N-terminal polyhistidine and DsRed monomer fusion (pET32a); chain copies: 2; label: CyDye5-dUTP incorporated in the synthesized complementary strand; 3' TTTTT single-stranded linker to array surface; dsDNA, one strand shown.
T1 sequence: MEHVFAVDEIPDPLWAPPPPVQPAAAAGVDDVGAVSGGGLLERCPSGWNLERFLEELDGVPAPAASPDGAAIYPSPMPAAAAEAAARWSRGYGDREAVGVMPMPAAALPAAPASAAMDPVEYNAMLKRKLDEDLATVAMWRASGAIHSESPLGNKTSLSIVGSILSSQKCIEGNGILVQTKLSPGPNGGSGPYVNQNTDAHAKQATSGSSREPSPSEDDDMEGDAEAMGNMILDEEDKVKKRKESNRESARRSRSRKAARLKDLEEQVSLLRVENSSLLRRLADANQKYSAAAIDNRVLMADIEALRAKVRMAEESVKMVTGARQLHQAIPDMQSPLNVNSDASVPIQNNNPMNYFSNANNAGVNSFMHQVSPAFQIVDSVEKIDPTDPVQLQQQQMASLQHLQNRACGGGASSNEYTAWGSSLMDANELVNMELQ
How it was run: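 The binding signal for each feature is its fluorescence intensity in arbitrary units. An Axon 4000B scanner was used to read a custom Agilent array that had been made double-stranded with Cy5-dUTP primer extension, blocked with 2% BSA, incubated at 25 °C for 1 h with 200 nM protein in PBS, 2% BSA, salmon testes DNA and 50 µM zinc acetate, and washed. The protein was an N-terminal polyhistidine–DsRed transcription factor fusion from E. coli BL21-CodonPlus, purified on Ni–NTA.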

Sequence	binding signal
AGCGCCATGCTAAATGGCGCTGACATGTCCAAACTCAGCGCGGAGTCACCTAGTGCAG	8240 fluorescence intensity (a.u.)
GGGTTCACGGCCGCCACGTTGCCCCGCGTCACCGTAGGGCCGGAGTCACCTAGTGCAG	10600 fluorescence intensity (a.u.)
GTTCGAGGCAGCTAAGCCTACGTGGCAGATCCATAGGCCCCGGAGTCACCTAGTGCAG	16100 fluorescence intensity (a.u.)
GAGAACACAATTTGTTGGAACAGTATCAGATTAGTTAGCACGGAGTCACCTAGTGCAG	33400 fluorescence intensity (a.u.)
GCGCGTCGCGGCCATAGAAGGGATTCGGGGAGACGTGGCCCGGAGTCACCTAGTGCAG	3480 fluorescence intensity (a.u.)
CTCAGTAGTAGCAGTGGTTGACGTGTAGTTACTATAGACGCGGAGTCACCTAGTGCAG	6020 fluorescence intensity (a.u.)
CTCTTCCTGTGATGGCATGACGCCATGCGGTCGCAGCTAGCGGAGTCACCTAGTGCAG	4540 fluorescence intensity (a.u.)
CGAGGCCTTGCCCGGGAACGGCGAGCATGGACGTCATCCGCGGAGTCACCTAGTGCAG	3820 fluorescence intensity (a.u.)
GCCACCGCCACCTCATCTTCTCTCCCACCACCGCTCCACACGGAGTCACCTAGTGCAG	5070 fluorescence intensity (a.u.)
AGCTTCCATCACACTAACACTTGAATTAACACGGAGTAGTCGGAGTCACCTAGTGCAG	6300 fluorescence intensity (a.u.)
AGGAGTGCATACACCGCGTCCACGCCCACATTCACACGCCCGGAGTCACCTAGTGCAG	28600 fluorescence intensity (a.u.)
TAGGCATGGGGCGGCGGCGCGACGCCGGCCGTCGTGAGCTCGGAGTCACCTAGTGCAG	19100 fluorescence intensity (a.u.)
TTGGTTATCTTTACATTACCAAATAATGTCATAGCGTTAGCGGAGTCACCTAGTGCAG	8160 fluorescence intensity (a.u.)
CTCGCCGGAGGTGGGCCCCACGTGACAGCCTCACACGCGGCGGAGTCACCTAGTGCAG	3340 fluorescence intensity (a.u.)
GGTAACGAGGACGGCTGGGATTGCGCCACGTGGCAGCCTTCGGAGTCACCTAGTGCAG	31200 fluorescence intensity (a.u.)
GGACGAAGAACGGGTCAACACCGCCACGTCAGCAAAACCGCGGAGTCACCTAGTGCAG	27700 fluorescence intensity (a.u.)
CCGTCACATAGCCACGATTACATGAGATTCTGCACAGTTACGGAGTCACCTAGTGCAG	3230 fluorescence intensity (a.u.)
GGCAATGTACAATAACACCTGGCAATAACTCTTGCCAACACGGAGTCACCTAGTGCAG	3210 fluorescence intensity (a.u.)
GATGGCGGTTTTGCTGATGTGGCGTTGACGTGCCGACCCGCGGAGTCACCTAGTGCAG	13200 fluorescence intensity (a.u.)
ATTACTATCTTTGAATGGGAACGAAGTTTCAATTATCACTCGGAGTCACCTAGTGCAG	10100 fluorescence intensity (a.u.)
CATCCATCCGTCCGTGCCTCCGCGTTGCGCGTCCTTACCGCGGAGTCACCTAGTGCAG	3140 fluorescence intensity (a.u.)

Sequence	binding signal
TTCAATAGGACACGGTGCTGATGACGTGGCGTGGCGGTGCCGGAGTCACCTAGTGCAG	38100 fluorescence intensity (a.u.)
TTGCTATTCTCACCCATTACACTTGCTTATCCACAGTCATCGGAGTCACCTAGTGCAG	4380 fluorescence intensity (a.u.)
TAGTACACCCGGCGACACATTTGATCCACACGTGTACGTACGGAGTCACCTAGTGCAG	6760 fluorescence intensity (a.u.)
ACTAATGTACCATGACTGTTTCCTGCCAACACGAACACGTCGGAGTCACCTAGTGCAG	5290 fluorescence intensity (a.u.)
GCTTTAAATCGTGTGCCGATTCGTGGAGACGGGTATGAGTCGGAGTCACCTAGTGCAG	4380 fluorescence intensity (a.u.)
TGGCTCATGGAGAAAGAGGGGTGGTGGCGGTGCGTGGAGTCGGAGTCACCTAGTGCAG	3250 fluorescence intensity (a.u.)
ACCCGCGGTGACGCGCTCCTTGACTCGGCGCCCCTGCTCGCGGAGTCACCTAGTGCAG	5940 fluorescence intensity (a.u.)
AAACTTCTCTTCAGATAAAGATTTACTACCGTGTCAAATTCGGAGTCACCTAGTGCAG	3800 fluorescence intensity (a.u.)
CTCACACTTCACACGCCCCACTCAGCTCAGCTGCATGCTGCGGAGTCACCTAGTGCAG	3410 fluorescence intensity (a.u.)
TTCCGCGCTGTAGCACGTGGAATAGCACTACCGTCAAAATCGGAGTCACCTAGTGCAG	3820 fluorescence intensity (a.u.)
TTGATCAAATTGCCACGCAGACACCACGTCAGCCAAAACCCGGAGTCACCTAGTGCAG	21100 fluorescence intensity (a.u.)
AGTGCATTGGAGTGACACGTTTGAACTTTGAAGCATCATGCGGAGTCACCTAGTGCAG	3600 fluorescence intensity (a.u.)
AGAGCAAAGGCCGGAGTCAGATGCGCGCGCGATTCCGTGACGGAGTCACCTAGTGCAG	18800 fluorescence intensity (a.u.)
CCACCTCCTCGCCGCCGCCGCCGGCCACCGCCGCCGCCGCCGGAGTCACCTAGTGCAG	3740 fluorescence intensity (a.u.)
CTTATCAACTCCGGCCCTTGTGAGCTGGTCGACGCGTGGTCGGAGTCACCTAGTGCAG	3870 fluorescence intensity (a.u.)
GCGACGCCACGCCACGCCACCACTCGCCGCAGCGCCGCGCCGGAGTCACCTAGTGCAG	6890 fluorescence intensity (a.u.)
ACCCTGCAGCGAGAGAGAGCCAGCCGCTCAGCTCAGCTCCCGGAGTCACCTAGTGCAG	12200 fluorescence intensity (a.u.)
CGCCATAGTTAAGGGACGATGACGCAGCTTTTCTTGGAGTCGGAGTCACCTAGTGCAG	11000 fluorescence intensity (a.u.)
TACTACAGACGATCAGAATATGAGTCAGTTGCATCCATAACGGAGTCACCTAGTGCAG	3390 fluorescence intensity (a.u.)
TACTTGTAGACCTGAGCATATCCACGTCGATTTACTTCAACGGAGTCACCTAGTGCAG	5810 fluorescence intensity (a.u.)
GCGAGTTCTTGGTCGATCGGTCTCCATTACTCTGCGTCAGCGGAGTCACCTAGTGCAG	4620 fluorescence intensity (a.u.)

Sequence	binding signal
CCCTTCCTCAGCATGGCTGCTTCTTATGTGGGCCTTCCGTCGGAGTCACCTAGTGCAG	3700 fluorescence intensity (a.u.)
CCGCATAACAATAGTTTACACGAGAACGTGAATCATACGACGGAGTCACCTAGTGCAG	3890 fluorescence intensity (a.u.)
TATGTATTAATGTAGCTGCCACGTACCTTCTCCATCATCCCGGAGTCACCTAGTGCAG	9400 fluorescence intensity (a.u.)
CCATCTAGTATATAGTGGTGATGATGATGGTGGTACCAAACGGAGTCACCTAGTGCAG	5420 fluorescence intensity (a.u.)
TAGGCGAAGTATCCGTCAACAGCAAGGCGCCCATGGTAATCGGAGTCACCTAGTGCAG	3340 fluorescence intensity (a.u.)
TTGACATGCCTCTTTCTGTACACCTGTCTTTTACTGGCGTCGGAGTCACCTAGTGCAG	5120 fluorescence intensity (a.u.)
CTCTCTGCGACGCTACGCTGCCCCAAGCAGCGGAAACAATCGGAGTCACCTAGTGCAG	29100 fluorescence intensity (a.u.)
GCGGTCTCCTCTCCTGTCGTGCGTGCGTGCCGGAGACGACCGGAGTCACCTAGTGCAG	3920 fluorescence intensity (a.u.)
CAATGGATCGAGTACTTATCTACTGATCTAGTCATCAATCCGGAGTCACCTAGTGCAG	5560 fluorescence intensity (a.u.)
CCTGCGCCGCCGTGACAGCCGCGATGGTCGCCGGCGGAGACGGAGTCACCTAGTGCAG	3340 fluorescence intensity (a.u.)
ATCTCTATTATTATAGTATTTTGGTACGTCATCCGTGTATCGGAGTCACCTAGTGCAG	7580 fluorescence intensity (a.u.)
GCAAATATGTAAATTACACCTGGAGACATAGGTTGTGTTTCGGAGTCACCTAGTGCAG	4940 fluorescence intensity (a.u.)
AAATCTCGCGTAGACGACGTCGTAGCCGTGGCCACCGCTACGGAGTCACCTAGTGCAG	3480 fluorescence intensity (a.u.)
AGCGGAGGTGGACCCTTCCGTTCACTTCGTCCGCAAGTCGCGGAGTCACCTAGTGCAG	25800 fluorescence intensity (a.u.)
TAGTAGTAATGTTGCTTCTGGTAATAGTTGTGTGTGCTGTCGGAGTCACCTAGTGCAG	3320 fluorescence intensity (a.u.)
CATCTTCAGAATAAAAGAACACCACCGAAGAGCATACTACCGGAGTCACCTAGTGCAG	30200 fluorescence intensity (a.u.)
CAGTTCTTTTGTTTCTTTGACATCATTAGCCTTACATTTGCGGAGTCACCTAGTGCAG	4050 fluorescence intensity (a.u.)
GCGAGAAAGACGAGGTGGTGGTGGCGGCGGCGGTTGTGATCGGAGTCACCTAGTGCAG	3950 fluorescence intensity (a.u.)
ACGAGACGCGTGCGTCACAGCAGCTCACGATTCCGTCGCGCGGAGTCACCTAGTGCAG	3710 fluorescence intensity (a.u.)
GATCGTGGAATTAATTCCACCTTAGTTGTTATGGGCGGGTCGGAGTCACCTAGTGCAG	4260 fluorescence intensity (a.u.)
AGCGAGTAACGTGGCATATTCACCATAGATGTCCACGACACGGAGTCACCTAGTGCAG	7260 ± 427 fluorescence intensity (a.u.)

Sequence	binding signal
AACGCATTCCAGCTCATCCGTCTCCTGACCTTTGCTTGTCCGGAGTCACCTAGTGCAG	5830 fluorescence intensity (a.u.)
TATCATCAGGCTAATATGCCGTGACAACACTTTGTGTTTCCGGAGTCACCTAGTGCAG	3710 fluorescence intensity (a.u.)
CTCACGAGCCAAACGAGCCAATGATAGCCCACGTCACAAGCGGAGTCACCTAGTGCAG	13500 fluorescence intensity (a.u.)
ATAGGCTGTCAGGCTGATGGCTACACTTGAACATTACCTTCGGAGTCACCTAGTGCAG	27800 fluorescence intensity (a.u.)
CCAGCGTCGCCGGCCCGCCACGTGTACGGCTCTGATTGGACGGAGTCACCTAGTGCAG	12700 fluorescence intensity (a.u.)
TCGTCTTCTCCACATCAATCACCAGCTATCTCGATCGTGACGGAGTCACCTAGTGCAG	3510 fluorescence intensity (a.u.)
TAAATTGACACATCACCTCTAGGATCCTACGTGGCGTTGACGGAGTCACCTAGTGCAG	14400 fluorescence intensity (a.u.)
CCCGCGCCTGCATCGCCACGTGGCATCCCGCCGCCACGGGCGGAGTCACCTAGTGCAG	19500 fluorescence intensity (a.u.)
CAGAAGGATATATGTTTTATAATTTATTCAAATACTAGATCGGAGTCACCTAGTGCAG	41400 fluorescence intensity (a.u.)
CAGAGTTTGTTACTAAAGGAGAAGGACAGCCATGTAGGCACGGAGTCACCTAGTGCAG	3630 fluorescence intensity (a.u.)
TTGACAAAGATGACTAGCGGTGTCCATAAATTTGTTCTCACGGAGTCACCTAGTGCAG	34800 fluorescence intensity (a.u.)
AAACTTCCAACTTTTCCGTCACATCGACACACATAAACTTCGGAGTCACCTAGTGCAG	3240 fluorescence intensity (a.u.)
GTCAAATTCTAGTGAGAATACTGTGAATTTCATGGTTCCACGGAGTCACCTAGTGCAG	11100 fluorescence intensity (a.u.)
TACAGCCGTTGACAGTTAACTGAACTTTCACTAGTTCAATCGGAGTCACCTAGTGCAG	3190 fluorescence intensity (a.u.)
GGCGCATCACTTCCCTCTGTCTCCGAGCTTACTATTTTATCGGAGTCACCTAGTGCAG	28500 fluorescence intensity (a.u.)
AATTTCTCAGATAATGACACATGATCATAGGAATTCAACCCGGAGTCACCTAGTGCAG	21300 fluorescence intensity (a.u.)
GAATGACTCAATTAGTCCGAATGACTGAAATTCCACGGGGCGGAGTCACCTAGTGCAG	3330 fluorescence intensity (a.u.)
AAGACACAAGGTGCACGTCACTGATCAGATCACTGACGCACGGAGTCACCTAGTGCAG	5420 fluorescence intensity (a.u.)
AGTAGTTTATCTCTTAACATTAGTCCATACTATTAATATTCGGAGTCACCTAGTGCAG	3260 fluorescence intensity (a.u.)
GTGCGCGGCGGCGGCGTGGAGTACGCGCACCACCAGACGGCGGAGTCACCTAGTGCAG	4920 fluorescence intensity (a.u.)
TTGGGGAAAAGTTTTGAGTTTGATTGTCACATCGGATATACGGAGTCACCTAGTGCAG	53000 fluorescence intensity (a.u.)

Individual results from the entries so far.
binding signal with CTCACACTTCACACGCCCCACTCAGCTCAGCTGCATGCTGCGGAGTCACCTAGTGCAG reads 3410 fluorescence intensity (a.u.)
binding signal with ATCTCTATTATTATAGTATTTTGGTACGTCATCCGTGTATCGGAGTCACCTAGTGCAG reads 7580 fluorescence intensity (a.u.)
binding signal with CGAGGCCTTGCCCGGGAACGGCGAGCATGGACGTCATCCGCGGAGTCACCTAGTGCAG reads 3820 fluorescence intensity (a.u.)
binding signal with CAGAAGGATATATGTTTTATAATTTATTCAAATACTAGATCGGAGTCACCTAGTGCAG reads 41400 fluorescence intensity (a.u.)
binding signal with GGGTTCACGGCCGCCACGTTGCCCCGCGTCACCGTAGGGCCGGAGTCACCTAGTGCAG reads 10600 fluorescence intensity (a.u.)

— PMC7819943, “Rice protein-binding microarrays: a tool to detect cis-acting elements near promoter regions in rice”
